The record followed here is the supplement of paper PMC6411743.

Protein sequences, listed by entry. Tags and fused reporters are not part of them. Lines headed by an entry give the natural chain unless they say otherwise; changes in a name come on top.
UniProt O75717: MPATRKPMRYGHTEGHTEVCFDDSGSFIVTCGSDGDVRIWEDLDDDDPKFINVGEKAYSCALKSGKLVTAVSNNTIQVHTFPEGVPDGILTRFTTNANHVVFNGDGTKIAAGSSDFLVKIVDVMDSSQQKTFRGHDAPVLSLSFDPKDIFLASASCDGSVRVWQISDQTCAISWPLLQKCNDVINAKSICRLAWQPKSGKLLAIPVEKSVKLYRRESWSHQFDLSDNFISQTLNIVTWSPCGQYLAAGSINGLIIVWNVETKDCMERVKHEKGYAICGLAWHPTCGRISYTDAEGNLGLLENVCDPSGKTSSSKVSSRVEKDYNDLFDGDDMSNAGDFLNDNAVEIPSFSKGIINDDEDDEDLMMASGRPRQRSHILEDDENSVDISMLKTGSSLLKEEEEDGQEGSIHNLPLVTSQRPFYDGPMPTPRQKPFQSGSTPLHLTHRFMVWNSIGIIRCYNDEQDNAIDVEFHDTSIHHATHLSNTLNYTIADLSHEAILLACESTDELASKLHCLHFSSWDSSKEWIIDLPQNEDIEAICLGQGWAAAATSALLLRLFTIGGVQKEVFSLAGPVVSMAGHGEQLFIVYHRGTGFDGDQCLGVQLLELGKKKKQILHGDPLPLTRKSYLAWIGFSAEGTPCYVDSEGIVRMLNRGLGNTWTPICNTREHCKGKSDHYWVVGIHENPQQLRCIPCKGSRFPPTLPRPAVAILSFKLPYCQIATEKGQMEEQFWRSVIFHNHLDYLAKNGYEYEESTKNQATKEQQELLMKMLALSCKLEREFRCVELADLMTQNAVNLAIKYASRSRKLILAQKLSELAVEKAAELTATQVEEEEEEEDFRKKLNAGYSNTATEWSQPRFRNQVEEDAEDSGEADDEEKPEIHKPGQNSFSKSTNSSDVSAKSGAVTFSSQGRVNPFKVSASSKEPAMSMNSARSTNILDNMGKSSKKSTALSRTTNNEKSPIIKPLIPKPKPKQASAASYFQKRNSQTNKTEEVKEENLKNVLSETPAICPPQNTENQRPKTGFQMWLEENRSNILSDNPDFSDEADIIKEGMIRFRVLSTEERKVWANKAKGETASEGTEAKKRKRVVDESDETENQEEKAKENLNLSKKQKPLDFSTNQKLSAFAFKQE
UniProt O95373, whole entry: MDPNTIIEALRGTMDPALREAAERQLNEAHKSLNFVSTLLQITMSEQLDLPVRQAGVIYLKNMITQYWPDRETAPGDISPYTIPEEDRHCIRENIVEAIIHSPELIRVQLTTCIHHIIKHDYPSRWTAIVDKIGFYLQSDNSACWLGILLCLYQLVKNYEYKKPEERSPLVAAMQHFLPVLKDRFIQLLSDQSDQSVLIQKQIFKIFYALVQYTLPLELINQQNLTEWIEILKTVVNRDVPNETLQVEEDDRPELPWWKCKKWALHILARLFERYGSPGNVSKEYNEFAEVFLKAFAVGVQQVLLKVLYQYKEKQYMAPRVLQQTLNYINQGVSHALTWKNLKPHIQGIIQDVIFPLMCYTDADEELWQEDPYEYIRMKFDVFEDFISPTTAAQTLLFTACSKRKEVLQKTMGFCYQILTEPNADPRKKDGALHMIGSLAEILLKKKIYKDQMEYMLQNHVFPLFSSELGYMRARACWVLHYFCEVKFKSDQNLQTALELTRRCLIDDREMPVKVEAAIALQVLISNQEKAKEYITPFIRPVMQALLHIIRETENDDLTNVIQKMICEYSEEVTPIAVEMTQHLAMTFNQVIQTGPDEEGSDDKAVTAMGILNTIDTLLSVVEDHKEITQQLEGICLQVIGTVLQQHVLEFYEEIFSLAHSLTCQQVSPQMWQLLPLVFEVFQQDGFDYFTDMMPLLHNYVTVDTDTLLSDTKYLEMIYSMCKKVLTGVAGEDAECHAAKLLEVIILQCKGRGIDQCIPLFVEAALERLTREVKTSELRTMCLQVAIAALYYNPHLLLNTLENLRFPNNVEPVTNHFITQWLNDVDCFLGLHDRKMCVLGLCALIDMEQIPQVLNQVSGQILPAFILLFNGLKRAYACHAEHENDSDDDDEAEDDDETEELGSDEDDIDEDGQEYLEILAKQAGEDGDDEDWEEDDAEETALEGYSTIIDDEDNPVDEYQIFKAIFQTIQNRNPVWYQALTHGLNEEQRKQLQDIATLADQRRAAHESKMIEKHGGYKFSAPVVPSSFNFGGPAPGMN
UniProt O75340: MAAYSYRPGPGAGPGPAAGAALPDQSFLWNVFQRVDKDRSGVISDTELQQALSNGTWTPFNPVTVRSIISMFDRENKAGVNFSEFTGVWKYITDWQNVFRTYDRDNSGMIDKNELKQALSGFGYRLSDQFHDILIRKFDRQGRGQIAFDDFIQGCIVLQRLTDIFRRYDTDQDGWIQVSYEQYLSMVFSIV
UniProt P05387, whole entry: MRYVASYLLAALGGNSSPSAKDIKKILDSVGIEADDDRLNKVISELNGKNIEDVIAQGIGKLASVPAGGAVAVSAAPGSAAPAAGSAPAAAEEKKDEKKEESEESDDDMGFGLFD
UniProt O95881: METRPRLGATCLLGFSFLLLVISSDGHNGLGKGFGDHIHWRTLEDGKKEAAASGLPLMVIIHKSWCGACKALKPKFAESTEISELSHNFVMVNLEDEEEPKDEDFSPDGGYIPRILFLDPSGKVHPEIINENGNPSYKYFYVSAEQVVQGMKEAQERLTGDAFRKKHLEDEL
UniProt O75947: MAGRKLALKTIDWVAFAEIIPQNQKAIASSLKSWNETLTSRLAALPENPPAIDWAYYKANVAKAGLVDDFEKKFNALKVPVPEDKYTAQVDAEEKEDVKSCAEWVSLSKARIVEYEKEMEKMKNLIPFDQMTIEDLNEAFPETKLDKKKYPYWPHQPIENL
UniProt O75964: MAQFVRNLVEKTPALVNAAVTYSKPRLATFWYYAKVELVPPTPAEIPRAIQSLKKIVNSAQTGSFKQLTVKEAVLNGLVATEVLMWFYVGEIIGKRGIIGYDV
UniProt P04183: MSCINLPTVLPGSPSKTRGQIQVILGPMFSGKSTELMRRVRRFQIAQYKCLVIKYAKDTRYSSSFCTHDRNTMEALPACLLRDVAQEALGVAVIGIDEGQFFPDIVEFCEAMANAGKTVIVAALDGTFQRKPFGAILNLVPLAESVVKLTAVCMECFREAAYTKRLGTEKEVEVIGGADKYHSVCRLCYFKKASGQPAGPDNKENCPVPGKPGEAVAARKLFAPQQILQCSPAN
UniProt O95696: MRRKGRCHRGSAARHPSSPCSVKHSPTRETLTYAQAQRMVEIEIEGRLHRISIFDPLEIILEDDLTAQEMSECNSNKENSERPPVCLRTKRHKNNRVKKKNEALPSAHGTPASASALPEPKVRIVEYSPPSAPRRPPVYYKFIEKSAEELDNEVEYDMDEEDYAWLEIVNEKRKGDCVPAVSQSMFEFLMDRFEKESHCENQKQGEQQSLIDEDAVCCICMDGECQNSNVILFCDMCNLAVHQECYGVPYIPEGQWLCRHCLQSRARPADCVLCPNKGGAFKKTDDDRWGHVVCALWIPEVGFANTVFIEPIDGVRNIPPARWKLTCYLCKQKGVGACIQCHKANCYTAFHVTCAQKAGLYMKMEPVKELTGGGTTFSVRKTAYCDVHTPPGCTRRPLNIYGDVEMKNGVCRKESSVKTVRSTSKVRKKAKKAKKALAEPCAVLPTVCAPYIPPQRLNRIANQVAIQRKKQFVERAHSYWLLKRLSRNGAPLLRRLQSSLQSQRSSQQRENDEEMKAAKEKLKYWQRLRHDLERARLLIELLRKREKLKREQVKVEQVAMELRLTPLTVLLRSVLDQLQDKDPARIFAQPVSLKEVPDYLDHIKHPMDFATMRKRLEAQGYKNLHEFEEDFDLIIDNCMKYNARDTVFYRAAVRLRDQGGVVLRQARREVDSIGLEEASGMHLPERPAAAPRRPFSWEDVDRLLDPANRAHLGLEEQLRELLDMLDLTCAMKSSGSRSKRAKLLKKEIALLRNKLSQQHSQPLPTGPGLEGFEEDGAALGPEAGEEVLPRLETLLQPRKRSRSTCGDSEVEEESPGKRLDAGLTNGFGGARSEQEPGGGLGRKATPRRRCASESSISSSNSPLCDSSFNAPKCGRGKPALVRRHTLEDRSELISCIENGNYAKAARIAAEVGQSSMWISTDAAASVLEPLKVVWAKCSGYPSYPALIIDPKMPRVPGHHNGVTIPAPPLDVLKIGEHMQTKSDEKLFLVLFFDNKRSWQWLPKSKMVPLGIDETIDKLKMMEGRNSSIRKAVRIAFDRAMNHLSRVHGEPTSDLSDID
UniProt O94766: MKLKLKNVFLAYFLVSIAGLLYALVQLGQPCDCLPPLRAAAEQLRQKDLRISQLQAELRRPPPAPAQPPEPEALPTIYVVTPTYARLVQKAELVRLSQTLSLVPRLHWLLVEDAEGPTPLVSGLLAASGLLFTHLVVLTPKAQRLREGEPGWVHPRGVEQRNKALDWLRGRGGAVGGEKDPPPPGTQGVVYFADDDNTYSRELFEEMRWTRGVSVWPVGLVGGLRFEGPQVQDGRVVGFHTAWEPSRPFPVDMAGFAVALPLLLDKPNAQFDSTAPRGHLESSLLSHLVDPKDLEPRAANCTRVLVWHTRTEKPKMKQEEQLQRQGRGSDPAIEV
UniProt O95786: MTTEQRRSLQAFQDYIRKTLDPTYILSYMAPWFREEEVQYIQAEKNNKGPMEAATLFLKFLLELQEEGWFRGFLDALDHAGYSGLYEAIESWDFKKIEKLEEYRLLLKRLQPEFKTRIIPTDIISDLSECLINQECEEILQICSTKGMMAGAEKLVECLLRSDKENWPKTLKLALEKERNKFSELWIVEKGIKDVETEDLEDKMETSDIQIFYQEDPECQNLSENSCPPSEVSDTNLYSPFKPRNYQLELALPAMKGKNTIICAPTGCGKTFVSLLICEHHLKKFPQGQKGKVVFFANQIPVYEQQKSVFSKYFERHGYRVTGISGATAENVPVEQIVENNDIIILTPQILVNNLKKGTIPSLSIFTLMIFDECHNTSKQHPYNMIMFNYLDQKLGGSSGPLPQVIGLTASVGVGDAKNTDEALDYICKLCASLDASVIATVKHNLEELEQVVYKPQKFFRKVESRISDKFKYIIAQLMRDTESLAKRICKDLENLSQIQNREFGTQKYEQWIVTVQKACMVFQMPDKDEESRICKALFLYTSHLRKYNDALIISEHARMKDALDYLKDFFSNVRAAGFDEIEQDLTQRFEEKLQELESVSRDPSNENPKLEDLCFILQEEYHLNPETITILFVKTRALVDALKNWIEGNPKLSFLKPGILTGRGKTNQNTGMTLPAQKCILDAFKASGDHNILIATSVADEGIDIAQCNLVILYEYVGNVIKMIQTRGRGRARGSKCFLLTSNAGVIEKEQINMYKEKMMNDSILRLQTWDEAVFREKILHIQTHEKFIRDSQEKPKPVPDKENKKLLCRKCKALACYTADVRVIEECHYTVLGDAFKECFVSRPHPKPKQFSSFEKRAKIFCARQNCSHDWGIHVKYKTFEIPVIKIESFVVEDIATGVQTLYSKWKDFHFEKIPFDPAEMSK
UniProt O75164: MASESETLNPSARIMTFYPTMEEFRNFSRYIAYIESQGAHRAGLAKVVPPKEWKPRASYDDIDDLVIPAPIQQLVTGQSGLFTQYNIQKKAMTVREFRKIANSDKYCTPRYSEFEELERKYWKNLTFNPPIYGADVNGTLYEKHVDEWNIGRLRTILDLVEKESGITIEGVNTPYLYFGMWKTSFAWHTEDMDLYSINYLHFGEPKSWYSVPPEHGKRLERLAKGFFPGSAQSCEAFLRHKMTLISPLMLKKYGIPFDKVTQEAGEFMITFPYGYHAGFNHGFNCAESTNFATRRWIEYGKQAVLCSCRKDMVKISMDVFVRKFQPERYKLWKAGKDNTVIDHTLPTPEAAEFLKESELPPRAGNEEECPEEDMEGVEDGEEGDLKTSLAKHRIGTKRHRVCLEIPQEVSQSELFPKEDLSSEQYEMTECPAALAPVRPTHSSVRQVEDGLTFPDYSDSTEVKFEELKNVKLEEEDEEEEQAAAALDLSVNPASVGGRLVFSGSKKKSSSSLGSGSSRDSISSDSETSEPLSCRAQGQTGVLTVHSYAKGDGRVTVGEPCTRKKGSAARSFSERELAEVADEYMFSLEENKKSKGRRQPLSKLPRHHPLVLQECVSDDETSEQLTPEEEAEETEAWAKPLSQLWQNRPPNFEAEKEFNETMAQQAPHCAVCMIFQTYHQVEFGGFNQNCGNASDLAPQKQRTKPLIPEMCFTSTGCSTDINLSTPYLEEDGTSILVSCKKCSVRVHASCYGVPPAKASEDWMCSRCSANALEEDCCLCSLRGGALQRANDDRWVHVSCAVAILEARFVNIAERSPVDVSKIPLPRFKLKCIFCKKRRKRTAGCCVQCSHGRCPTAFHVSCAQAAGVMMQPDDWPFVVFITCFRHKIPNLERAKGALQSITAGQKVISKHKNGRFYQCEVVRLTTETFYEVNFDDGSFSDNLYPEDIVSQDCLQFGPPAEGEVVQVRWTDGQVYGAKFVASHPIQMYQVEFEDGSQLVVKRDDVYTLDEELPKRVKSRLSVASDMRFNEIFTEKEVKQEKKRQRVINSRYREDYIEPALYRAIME

± gives the standard deviation of the averaged measurements. This is one part of the list.

Compound in the first test: Nc1nc2c(ncn2[C@@H]2O[C@H](COP(=O)(O)OP(=O)(O)OP(=O)(O)O)[C@@H](O)[C@H]2O)c(=O)[nH]1 [guanosine triphosphate]
In words: NP40-soluble protein abundance relative to vehicle (solubility fold change) (ratio); higher = more soluble protein in presence of GTP. The settings on record: concentration: 0.1mM. The method, boiled down:
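Crude Jurkat lysate, prepared by Dounce homogenisation, was exposed to eight concentrations from 0.1 to 10 mM for 10 min at room temperature and then 3 min at 37 °C. Solubilisation used 0.8% NP40 with benzonase for 60 min at 4 °C, followed by ultracentrifugation and TMT labelling of the supernatant for LC-MS/MS. After vsn normalisation of intensities, each value is the fold change against the detergent-processed vehicle within each replicate, across three independent experiments.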
For the target WDHD1 (UniProt O75717), the NP40-soluble protein abundance came to 0.991 ± 0.055.

For the target ROCK2 (UniProt O75116), the NP40-soluble protein abundance stood at 0.975 ± 0.042.

Take IPO7 (UniProt O95373): the NP40-soluble protein abundance was determined as 1.01 ± 0.073.

As to UniProt O75396, the NP40-soluble protein abundance is 0.915 ± 0.073.

Consider PDCD6 (UniProt O75340), for which the NP40-soluble protein abundance worked out at 0.951 ± 0.018.

With FUCA1 (UniProt P04066), the NP40-soluble protein abundance came out at 1.04 ± 0.18.

RPLP2 (UniProt P05387): the NP40-soluble protein abundance came to 0.957 ± 0.099.

For UTP20 (UniProt O75691), the NP40-soluble protein abundance was 1.1 ± 0.12.

Take UniProt O75170 and related entries: the NP40-soluble protein abundance turned out to be 1 ± 0.15.

Still in this test, the particulars now being: concentration: 0.5mM.
ATP6V1G1 (UniProt O75348): the NP40-soluble protein abundance was 0.972 ± 0.044.

With GRAP2 (UniProt O75791), the NP40-soluble protein abundance was 1.016 ± 0.0083.

As for TXNDC12 (UniProt O95881), the NP40-soluble protein abundance was 0.867 ± 0.04.

Consider KATNA1 (UniProt O75449), for which the NP40-soluble protein abundance turned out to be 1.03 ± 0.018.

Turning to UniProt O75947, the NP40-soluble protein abundance was 0.938 ± 0.068.

For CTSV (UniProt O60911), the NP40-soluble protein abundance came to 0.935 ± 0.056.

ZBED4 (UniProt O75132): the NP40-soluble protein abundance is 1.01 ± 0.075.

As for UniProt O75190-2|O75190-4|O75190, the NP40-soluble protein abundance was found to be 1.05 ± 0.091.

As to SH3BGRL (UniProt O75368), the NP40-soluble protein abundance was 0.897 ± 0.17.

Take UniProt O75145 and related entries: the NP40-soluble protein abundance worked out at 1 ± 0.14.

Consider UniProt O75964, for which the NP40-soluble protein abundance is 0.821 ± 0.058.

For the target TK1 (UniProt P04183), the NP40-soluble protein abundance is 0.989 ± 0.011.

In the case of UniProt O95551 and related entries, the NP40-soluble protein abundance worked out at 0.997 ± 0.026.

Consider UniProt O95696 and related entries, for which the NP40-soluble protein abundance worked out at 0.983 ± 0.14.

With UniProt O94766 and related entries, the NP40-soluble protein abundance came to 0.974 ± 0.052.

Regarding STAMBP (UniProt O95630), the NP40-soluble protein abundance was determined as 0.953 ± 0.019.

Regarding UniProt O95786 and related entries, the NP40-soluble protein abundance was found to be 1.07 ± 0.049.

UniProt O75164: the NP40-soluble protein abundance amounted to 0.993 ± 0.082.

Turning to SNX4 (UniProt O95219), the NP40-soluble protein abundance is 1 ± 0.054.

For the target EIF2S1 (UniProt P05198), the NP40-soluble protein abundance amounted to 1.03 ± 0.031.
